Cell number change and AC50 data for 17 compounds are collected here from PubChem BioAssay AID2685 (National Center for Advancing Translational Sciences (NCATS), 2010).

As a reminder, the AC50 is the midpoint of the concentration-response curve, whichever way the signal moves.

Some of the results follow. These are further read-outs of the screen, such as a control signal, another cell line or another target. No call is given for them. The list favours compounds with an active or inconclusive main result. Words in brackets tell the shape of the fitted curve; partial curves, single points and poor fits give uncertain potencies.

The nature of the assay: qHTS Assay for Lipid Storage Modulators in Drosophila S3 Cells.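 As to Cell number change: cells counted by Cell Tracker Red CMTPX staining in the red channel.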 Particulars: BODIPY lipid droplet fluorescence, 18-24 h; for cell number change: measured here: cell count max response, cells fed with added oleic acid. The method, boiled down: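 Drosophila S3 cells got compounds at several concentrations plus oleic acid (400 uM solution). Laser-scanning cytometry with 488 nm excitation read lipid droplets at 500-530 nm and cells at 575-640 nm. Percent activity was relative to 20 uM Triacsin C.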

Setting [1] is: measured here: cell number channel AC50, cells fed with added oleic acid.
Where [2] appears, read: measured here: lipid fluorescence (Fed channel) AC50, cells fed with added oleic acid.

Turning to `CCOC(=O)CNc1ccc2c(c1)OCO2`, the cell number change is 134%. In addition, the AC50 under setting [1] was 29.1 µM [rising, single point]. For the same compound, the AC50 under setting [2] is 29.1 µM [rising, single point].
`Cc1nc(/N=C(\N)Nc2ccccc2)nc2ccccc12`: the cell number change is 1.63%. Besides, under setting [2], the AC50 is 11.6 µM [rising, partial curve].
`Cc1cccc(NC(=O)COC(=O)c2ccccc2-c2nc3ccccc3s2)c1C`: the cell number change was -10.3%. For the same compound, the AC50 under setting [2] is 25.9 µM [falling, partial curve, poor fit].
On to `CN1CCC(N(C)C(=O)c2sc3cc(F)ccc3c2Cl)CC1`, for which the cell number change was -111%.
Take `COc1cc(/C=N/NC(=O)C(=O)NCC2CCCO2)ccc1O` (centres undefined): the cell number change was -32.5%. Further, the AC50 under setting [1] is 6.51 µM [falling, partial curve].
Consider `Cn1nnnc1SCC(=O)c1ccco1`, for which, under setting [2], the AC50 was 3.26 µM [falling, partial curve].
As for `CC(C)OCCCNC(=O)CN1C(=O)c2cccc3cccc1c23`, the cell number change was -12.4%.
For `CC1C(=O)N2CCCc3cc(NC(=O)C(=O)NCCCc4ccccc4)cc1c32` (centres undefined), the AC50 under setting [1] is 2.31 µM [rising, partial curve].
Consider `COc1cc([N+](=O)[O-])cc(/C=N/NC(=O)C(C)Nc2ccccc2C)c1O` (centres undefined), for which the cell number change is -24.6%. Moreover, the AC50 under setting [1] is 4.61 µM [falling, full curve, poor fit]. Besides, under setting [2], the AC50 is 8.2 µM [falling, partial curve, poor fit].
In the case of `COc1ccc(/C=C/C(=O)c2ccccc2O)cc1`, the cell number change came out at 20.9%. Moreover, the AC50 under setting [2] is 1.3 µM [rising, partial curve].
Take `Cc1c(-c2ccccc2)nc2ccccc2c1C(=O)Nc1ccncc1`: the cell number change is 88.2%. Moreover, under setting [1], the AC50 was 18.4 µM [rising, single point].
`C[N+]12CCCCC1[C@@H](CO)CCC2` (some centres undefined): the cell number change was -33.8%. The AC50 under setting [1] is 32.6 µM [falling, single point]. Further, the AC50 under setting [2] was 0.259 µM [falling, full curve].
In the case of `COc1ccc(CNc2nc3ccccc3s2)cc1OC`, the cell number change is 6.8%. In addition, under setting [1], the AC50 was 7.31 µM [rising, partial curve, poor fit].
`CC(C)(C)c1nnc(NC(=O)Cc2ccc(Br)cc2)s1`: the cell number change was -11.6%. Moreover, the AC50 under setting [2] is 6.51 µM [rising, full curve].
In the case of `Cc1ccc(F)cc1CNC(=O)c1cc(COc2ccc3ncccc3c2)on1`, the cell number change was -57.7%. In addition, under setting [1], the AC50 was 29.1 µM [falling, single point]. Also, under setting [2], the AC50 is 18.4 µM [falling, partial curve, poor fit].
`Cc1cccc(OCCn2c(NC(=O)c3ccco3)nc3ccccc32)c1`: the cell number change is -19%. The AC50 under setting [2] is 29.1 µM [falling, single point].
As to `CCOC(=O)c1cnc(SCC(=O)N2CCN(c3ccccc3)CC2)nc1N`, the AC50 is, setting by setting: under setting [1], 3.26 µM [rising, single point]; under setting [2], 9.2 µM [rising, partial curve].
